For experiment [1], the target named is T1, hWNK4 1012-1024 peptide with threonine at the -1 position, on the peptide array membrane (human) (UniProt Q96J92).
T1 sequence (peptide, N-terminal acetyl; C-terminus coupled to the TOTD membrane): QLVGTFQVTSSKE
The experiment is described as follows: peptide or protein array.

By UniProt entry, the sequences of proteins in these tests, tags left out. Where a name states a change or a piece, a line headed by the entry shows the natural chain unless it says otherwise.
UniProt Q96J92: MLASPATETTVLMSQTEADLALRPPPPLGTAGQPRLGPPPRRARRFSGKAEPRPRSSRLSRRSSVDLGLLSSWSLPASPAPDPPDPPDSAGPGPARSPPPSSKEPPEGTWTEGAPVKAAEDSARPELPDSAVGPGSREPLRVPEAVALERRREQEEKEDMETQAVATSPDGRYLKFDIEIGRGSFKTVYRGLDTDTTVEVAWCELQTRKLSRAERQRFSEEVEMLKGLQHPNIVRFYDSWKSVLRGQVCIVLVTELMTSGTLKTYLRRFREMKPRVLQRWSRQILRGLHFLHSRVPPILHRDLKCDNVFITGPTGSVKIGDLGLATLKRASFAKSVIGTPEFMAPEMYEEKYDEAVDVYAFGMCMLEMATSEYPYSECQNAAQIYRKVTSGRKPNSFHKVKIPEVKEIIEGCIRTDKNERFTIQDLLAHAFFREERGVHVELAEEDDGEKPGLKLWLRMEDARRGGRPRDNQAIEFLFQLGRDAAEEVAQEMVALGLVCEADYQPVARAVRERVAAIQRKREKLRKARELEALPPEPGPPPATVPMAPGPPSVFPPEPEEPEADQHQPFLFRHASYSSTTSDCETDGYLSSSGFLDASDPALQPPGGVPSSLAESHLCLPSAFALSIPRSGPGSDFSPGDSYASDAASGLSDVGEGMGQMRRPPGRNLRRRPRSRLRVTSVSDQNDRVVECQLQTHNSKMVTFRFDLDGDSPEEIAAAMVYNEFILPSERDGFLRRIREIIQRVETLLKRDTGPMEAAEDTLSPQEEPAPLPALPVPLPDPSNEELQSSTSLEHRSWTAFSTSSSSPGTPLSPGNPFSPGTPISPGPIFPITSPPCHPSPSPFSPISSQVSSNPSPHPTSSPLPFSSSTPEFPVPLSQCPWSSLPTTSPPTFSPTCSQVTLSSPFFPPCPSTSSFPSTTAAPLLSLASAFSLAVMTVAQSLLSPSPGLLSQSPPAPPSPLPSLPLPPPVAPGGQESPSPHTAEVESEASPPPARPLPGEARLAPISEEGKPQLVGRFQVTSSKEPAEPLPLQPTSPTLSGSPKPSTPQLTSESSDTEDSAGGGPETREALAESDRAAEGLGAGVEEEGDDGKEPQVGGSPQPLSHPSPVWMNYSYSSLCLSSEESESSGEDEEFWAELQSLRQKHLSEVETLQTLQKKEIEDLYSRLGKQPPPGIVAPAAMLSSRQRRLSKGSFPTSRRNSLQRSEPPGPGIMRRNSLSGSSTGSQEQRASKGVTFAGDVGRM
UniProt Q9UHY1: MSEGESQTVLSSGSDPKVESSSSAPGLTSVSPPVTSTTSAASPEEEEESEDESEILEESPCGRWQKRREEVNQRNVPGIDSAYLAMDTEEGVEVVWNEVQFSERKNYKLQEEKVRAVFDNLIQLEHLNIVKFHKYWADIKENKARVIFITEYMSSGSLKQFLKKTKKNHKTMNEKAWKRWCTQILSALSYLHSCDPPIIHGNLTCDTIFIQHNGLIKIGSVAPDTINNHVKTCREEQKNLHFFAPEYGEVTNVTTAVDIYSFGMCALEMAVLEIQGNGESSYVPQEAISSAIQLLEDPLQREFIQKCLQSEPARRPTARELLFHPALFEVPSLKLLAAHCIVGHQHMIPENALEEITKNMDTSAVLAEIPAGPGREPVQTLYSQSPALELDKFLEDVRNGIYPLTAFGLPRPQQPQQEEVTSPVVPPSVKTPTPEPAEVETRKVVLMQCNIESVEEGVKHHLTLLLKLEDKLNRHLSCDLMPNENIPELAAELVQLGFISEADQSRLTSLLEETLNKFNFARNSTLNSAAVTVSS
UniProt O95747: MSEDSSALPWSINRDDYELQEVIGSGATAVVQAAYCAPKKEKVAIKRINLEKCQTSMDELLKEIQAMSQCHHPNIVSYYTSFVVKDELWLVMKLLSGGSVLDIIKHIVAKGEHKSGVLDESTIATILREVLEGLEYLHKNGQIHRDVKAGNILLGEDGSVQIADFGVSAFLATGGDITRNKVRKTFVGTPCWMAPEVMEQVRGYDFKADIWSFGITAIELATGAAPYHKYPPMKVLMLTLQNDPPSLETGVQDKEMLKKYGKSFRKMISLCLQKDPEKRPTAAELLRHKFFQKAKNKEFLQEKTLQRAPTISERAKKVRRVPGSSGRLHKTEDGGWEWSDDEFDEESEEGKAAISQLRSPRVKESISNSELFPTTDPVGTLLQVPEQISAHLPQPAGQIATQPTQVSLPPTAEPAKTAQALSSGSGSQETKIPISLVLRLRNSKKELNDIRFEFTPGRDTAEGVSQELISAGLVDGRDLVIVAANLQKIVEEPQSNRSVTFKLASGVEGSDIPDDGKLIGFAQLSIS

The target of a further experiment is T2, endogenous ATG9A (UniProt Q7Z3C6).
T2 sequence: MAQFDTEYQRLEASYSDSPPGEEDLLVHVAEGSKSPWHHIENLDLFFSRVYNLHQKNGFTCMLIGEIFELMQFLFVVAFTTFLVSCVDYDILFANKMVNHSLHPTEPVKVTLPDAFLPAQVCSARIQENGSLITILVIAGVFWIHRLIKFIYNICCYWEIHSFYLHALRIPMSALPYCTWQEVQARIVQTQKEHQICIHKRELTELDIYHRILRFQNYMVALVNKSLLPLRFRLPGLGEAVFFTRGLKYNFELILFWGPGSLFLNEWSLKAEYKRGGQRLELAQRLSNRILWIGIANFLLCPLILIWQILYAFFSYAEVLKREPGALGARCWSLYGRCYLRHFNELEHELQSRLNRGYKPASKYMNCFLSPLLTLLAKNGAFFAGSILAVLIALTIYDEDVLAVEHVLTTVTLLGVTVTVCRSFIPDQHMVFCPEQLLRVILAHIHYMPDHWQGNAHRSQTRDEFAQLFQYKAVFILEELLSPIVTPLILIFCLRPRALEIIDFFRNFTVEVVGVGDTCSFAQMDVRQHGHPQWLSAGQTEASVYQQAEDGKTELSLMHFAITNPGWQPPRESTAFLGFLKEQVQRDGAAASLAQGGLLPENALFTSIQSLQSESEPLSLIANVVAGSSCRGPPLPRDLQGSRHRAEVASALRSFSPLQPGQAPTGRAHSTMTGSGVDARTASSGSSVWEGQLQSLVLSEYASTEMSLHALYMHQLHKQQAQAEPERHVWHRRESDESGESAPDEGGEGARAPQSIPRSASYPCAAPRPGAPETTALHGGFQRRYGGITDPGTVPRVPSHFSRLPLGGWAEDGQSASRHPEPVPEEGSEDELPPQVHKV
The experiment is described as follows: co-IP.

Experiment [2] has as its target T3, hWNK4 1012-1024 wild type peptide … on the peptide array membrane (human).
T3 sequence (peptide, N-terminal acetyl; C-terminus coupled to the TOTD membrane): QLVGRFQVTSSKE
The experiment in a line: peptide or protein array.

Another experiment deals with 3xFLAG-NRBP1 (UniProt Q9UHY1). The experiment is described as follows: co-IP.
The next experiment has as its target 3xFLAG-NRBP1 E488Q (UniProt Q9UHY1). The experiment is described as follows: co-IP.
The target in a further experiment is 3xFLAG-OSR1 (UniProt O95747). The experiment is described as follows: co-IP.
The target in experiment [3] is His6-OSR1 CCT (human OSR1 433-527) (human, UniProt O95747 433-527). The experiment in a line: fluorescence polarisation. In general terms: Fluorescence polarisation rises when a labelled molecule tumbles more slowly, as on binding a larger partner.

Results are given in words; binding and its absence hold for the method and conditions named. For some of these results: In cells and extracts the contact can be indirect. Some binding calls cover weakened binding; strength is not graded here. For some of these results: Tags and fused reporters may be left off the sequences shown.

In the case of “His6-OSR1 CCT (human OSR1 433-527) (from UniProt O95747 433-527) (domain or fragment)”, the binding entry in experiment [1] is on record as “no binding (tested: 300 µM)”.
For the molecule “OSR1 (work not yet published) (from UniProt O95747 1-527)”, in the experiment with endogenous ATG9A, the binding result is “binds”.
Take “His6-SPAK CCT (residues 449-545) (from UniProt Q9UEW8 449-545) (domain or fragment)”: the binding entry in experiment [2] is listed as “binds”; in experiment [1] it was “no binding (tested: 300 µM)”.

B1: myc-TSC22D1 (protein, UniProt Q15714 1-1073)
chain: MHQPPESTAAAAAAADISARKMAHPAMFPRRGSGSGSASALNAAGTGVGSNATSSEDFPPPSLLQPPPPAASSTSGPQPPPPQSLNLLSQAQLQAQPLAPGGTQMKKKSGFQITSVTPAQISASISSNNSIAEDTESYDDLDESHTEDLSSSEILDVSLSRATDLGEPERSSSEETLNNFQEAETPGAVSPNQPHLPQPHLPHLPQQNVVINGNAHPHHLHHHHQIHHGHHLQHGHHHPSHVAVASASITGGPPSSPVSRKLSTTGSSDSITPVAPTSAVSSSGSPASVMTNMRAPSTTGGIGINSVTGTSTVNNVNITAVGSFNPNVTSSMLGNVNISTSNIPSAAGVSVGPGVTSGVNVNILSGMGNGTISSSAAVSSVPNAAAGMTGGSVSSQQQQPTVNTSRFRVVKLDSSSEPFKKGRWTCTEFYEKENAVPATEGVLINKVVETVKQNPIEVTSERESTSGSSVSSSVSTLSHYTESVGSGEMGAPTVVVQQQQQQQQQQQQQPALQGVTLQQMDFGSTGPQSIPAVSIPQSISQSQISQVQLQSQELSYQQKQGLQPVPLQATMSAATGIQPSPVNVVGVTSALGQQPSISSLAQPQLPYSQAAPPVQTPLPGAPPPQQLQYGQQQPMVSTQMAPGHVKSVTQNPASEYVQQQPILQTAMSSGQPSSAGVGAGTTVIPVAQPQGIQLPVQPTAVPAQPAGASVQPVGQAPAAVSAVPTGSQIANIGQQANIPTAVQQPSTQVPPSVIQQGAPPSSQVVPPAQTGIIHQGVQTSAPSLPQQLVIASQSSLLTVPPQPQGVEPVAQGIVSQQLPAVSSLPSASSISVTSQVSSTGPSGMPSAPTNLVPPQNIAQTPATQNGNLVQSVSQPPLIATNTNLPLAQQIPLSSTQFSAQSLAQAIGSQIEDARRAAEPSLVGLPQTISGDSGGMSAVSDGSSSSLAASASLFPLKVLPLTTPLVDGEDESSSGASVVAIDNKIEQAMDLVKSHLMYAVREEVEVLKEQIKELIEKNSQLEQENNLLKTLASPEQLAQFQAQLQTGSPPATTQPQGTTQPPAQPASQGSGPTA
Turning to B1, the binding entry with 3xFLAG-NRBP1 and with 3xFLAG-NRBP1 E488Q was “binds” in each case.

B2: endogenous TSC22D1 (protein, UniProt Q15714 1-1073)
chain: B1 chain
As for B2, the binding result with 3xFLAG-OSR1 is on record as “binds”.
Take QLVGKFQVTSSKE (peptide, UniProt Q96J92 1012-1024) [hWNK4 1012-1024 peptide, -1 arginine to lysine]: the binding entry in experiment [3] is “no binding”.
In the case of SAGRRFIVSPVPE [hWNK1 1253-1265 wild type peptide NH3+-…-COO-], the binding result with 3xFLAG-OSR1 is given as “binds”.
In the case of QLVGTFQVTSSKE (peptide, UniProt Q96J92 1012-1024) [hWNK4 1012-1024 peptide, -1 arginine to threonine], the binding result in experiment [3] is listed as “no binding”.

The values are drawn from doi:10.1101/2024.06.26.600905 (bioRxiv, 2024).
